Source: patent publication US9359358B2, “Cyclohexyl azetidine derivatives as JAK inhibitors” (Incyte Holdings Corporation, priority 2011, dated 2016)
Where a name gives a salt, the structure may show the parent alone. For at least one compound, name, drawing or mass did not settle the structure.

Sequences of proteins named here, by UniProt entry; tags and fusion partners are left off. Residues count along the entry.
UniProt O60674, 828-1132: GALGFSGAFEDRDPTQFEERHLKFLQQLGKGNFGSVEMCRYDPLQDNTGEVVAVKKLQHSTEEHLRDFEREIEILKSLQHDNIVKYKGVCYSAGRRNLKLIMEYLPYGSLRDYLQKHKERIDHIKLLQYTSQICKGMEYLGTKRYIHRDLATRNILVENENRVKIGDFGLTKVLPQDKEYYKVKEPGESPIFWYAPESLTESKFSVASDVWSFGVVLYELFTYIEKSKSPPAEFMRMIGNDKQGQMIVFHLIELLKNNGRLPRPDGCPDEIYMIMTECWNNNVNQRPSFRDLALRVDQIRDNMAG

Target: T1, human JAK2 (Homo sapiens, UniProt O60674)
T1 construct: JAK2 (a.a. 828-1132); His tag (N); made in house; host or cells: insect cells (baculovirus)
Experiment: In Vitro JAK Kinase Assay (HTRF, phosphorylation of a biotinylated peptide), JAK2
Assay type: biochemical
Settings: assay of Example A
Method: The catalytic activity of JAK1, JAK2 or JAK3 was assayed by measuring the phosphorylation of a biotinylated peptide. The phosphorylated peptide was detected by homogenous time resolved fluorescence (HTRF). […] Reactions were carried out at room temperature for 1 hour and then stopped with 20 μL 45 mM EDTA, 300 nM SA-APC, 6 nM Eu-Py20 in assay buffer (Perkin Elmer, Boston, Mass.). Binding to the Europium labeled antibody took place for 40 minutes and HTRF signal was measured on a Fusion plate reader (Perkin Elmer, Boston, Mass.).

Row | Compound | JAK2/JAK1 IC50 ratio (Table 4) | JAK2/JAK1 IC50 ratio (Table 5)
1 | N#CCC1(n2cc(-c3ncnc4[nH]ccc34)cn2)CN([C@H]2CC[C@@H](Oc3cc(CN4CCCCC4)nc(C(F)(F)F)n3)CC2)C1 [Example 30, {1-(cis-4-{[6-(piperidin-1-ylmethyl)-2-(trifluoromethyl)pyrimidin-4-yl]oxy}cyclohexyl)-3-[4-(7H-pyrrolo[2,3-d]pyrimidin-4-yl)-1H-pyrazol-1-yl]azetidin-3-yl}acetonitrile tris(trifluoroacetate)] | ≧10 | 
2 | CC(C)CNCc1cc(O[C@H]2CC[C@@H](N3CC(CC#N)(n4cc(-c5ncnc6[nH]ccc56)cn4)C3)CC2)nc(C(F)(F)F)n1 [Example 35, {1-(cis-4-{[6-[(isobutylamino)methyl]-2-(trifluoromethyl)pyrimidin-4-yl]oxy}cyclohexyl)-3-[4-(7H-pyrrolo[2,3-d]pyrimidin-4-yl)-1H-pyrazol-1-yl]azetidin-3-yl}acetonitrile tris(trifluoroacetate)] | ≧10 | 
3 | CC(C)(CO)NCc1cc(O[C@H]2CC[C@@H](N3CC(CC#N)(n4cc(-c5ncnc6[nH]ccc56)cn4)C3)CC2)nc(C(F)(F)F)c1 [Example 71, {1-(cis-4-{[4-{[(2-hydroxy-1,1-dimethylethyl)amino]methyl}-6-(trifluoromethyl)pyridin-2-yl]oxy}cyclohexyl)-3-[4-(7H-pyrrolo[2,3-d]pyrimidin-4-yl)-1H-pyrazol-1-yl]azetidin-3-yl}acetonitrile tris(trifluoroacetate) (salt)] |  | ≧10
4 | N#CCC1(n2cc(-c3ncnc4[nH]ccc34)cn2)CN([C@H]2CC[C@@H](Oc3cc(CN4CCC(O)CC4)cc(C(F)(F)F)n3)CC2)C1 [Example 97, {1-(cis-4-{[4-[(4-hydroxypiperidin-1-yl)methyl]-6-(trifluoromethyl)pyridin-2-yl]oxy}cyclohexyl)-3-[4-(7H-pyrrolo[2,3-d]pyrimidin-4-yl)-1H-pyrazol-1-yl]azetidin-3-yl}acetonitrile tris(trifluoroacetate)] |  | ≧10
